Measured values reported in PubChem BioAssay AID2685 (National Center for Advancing Translational Sciences (NCATS), 2010).
Among all 320,000 compounds or so, about 2,100 (0.66%) were called active. Inconclusive means that the source gave no clear call. Such entries were picked first, then a sample of the others. Calls follow the shape of the dose curve; as a rule, active = well fitted inhibition curve with a large enough effect in the signal ratio, with a control signal flat (not every such curve was filed as active); inconclusive = small, poorly fitted or top-dose-only effect, or effect the other way, or a change in a side signal; inactive = flat fitted curve, though single readings scatter; the % refers to the signal ratio. Where the call is inconclusive, the potency comes from a doubtful curve fit.

Test: qHTS Assay for Lipid Storage Modulators in Drosophila S3 Cells
Settings: BODIPY lipid droplet fluorescence, 18-24 h, cells fed with added oleic acid; lipid storage change, negative = inhibition: at 46.1 µM (top of the series) unless noted
How it was run: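 Laser-scanning cytometry quantifies lipid droplet accumulation (500–530 nm total intensity; droplet/cell object ratio) in oleic acid-fed (400 uM added) Drosophila S3 cells treated with a concentration series. 20 uM Triacsin C defined 100% inhibition.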
% is scaled to controls: 0 for no effect and ±100 for the full control effect; potency is read from the fitted curve at half-maximal effect.

Structure (SMILES)	Potency	lipid storage change, negative = inhibition
CCN1CCN(C(=O)c2ccc(N3CC4CC(C3)c3cccc(=O)n3C4)c(NC(=O)c3cc(OC)cc(OC)c3)c2)CC1 (configuration not stated)	inconclusive: 6.51 µM [activator, single point]	
COc1ccc(N2CCN(C(=O)c3cn(Cc4ccccc4)nc3-c3cccnc3)CC2)cc1		inconclusive: -10.4%
O=C(NC(=S)Nc1ccc(N2CCOCC2)cc1)c1cccs1	inconclusive: 18.4 µM [falling, single point]	
Cc1ccccc1NC(=S)NN1CCN(C)CC1		inconclusive: 20.4%
COc1cccc(NS(=O)(=O)c2ccc(OC)c(OC)c2)c1	inconclusive: 23.1 µM [activator, single point]	
COc1ccc(C(F)(F)F)cc1N/C=C/c1nnnn1-c1ccc2ccccc2c1		inconclusive: 12.3%
CC(C)OCCCNC(=O)c1ccccc1Oc1ccccc1	inconclusive: 29.1 µM [activator, single point]	
O=C(Nc1ccc(Nc2ccccc2)cc1)c1c(F)c(F)c(F)c(F)c1F		inconclusive: 86.9%
CCCS(=O)(=O)c1csc(C(=O)OC)c1N		inconclusive: 16.1%
COc1ccc(C2(C)CC(C)(C)Nc3ccccc32)cc1 (configuration not stated)		inconclusive: 34.7%
COc1cc2ccccc2cc1C(=O)N(CCN(C)C)c1nc2c(F)cccc2s1	inconclusive: 4.61 µM [activator, full curve, poor fit]	
Cc1ccc(Nc2c(-c3ccc(N4CCOCC4)cc3)nc3ncccn23)cc1C		inconclusive: -6.67%
CCCCN(CCCNC(=O)C1CCN(S(=O)(=O)CC)CC1)c1ccccc1	inconclusive: 20.6 µM [falling, single point]	
CCN(CC)C(=O)CSc1nnc(COc2cccc(C)c2)n1C		inconclusive: -14.2%
Cc1ccc(-c2ccc3nnc(SCC(=O)NCC4CCCO4)n3n2)cc1 (configuration not stated)		inactive
CCCN(CC(=O)Nc1ccccc1C)C(=O)c1ccc(COc2ccccc2)cc1		inactive
CN(CCCNC(=O)c1cn(C)c2ccc(S(=O)(=O)N(C)C)cc2c1=O)c1ccccc1	inconclusive: 20.6 µM [falling, single point]	
CCN(Cc1ccccc1)c1ccc(N=Nc2nn(C)c(C)c2[N+](=O)[O-])cc1	inconclusive: 29.1 µM [falling, single point]	
CC1(c2ccc(OC(F)F)cc2)NC(=O)N(CC(=O)Nc2ccc(OC(F)F)cc2)C1=O (configuration not stated)		inconclusive: 32.4%
CCOc1ccc(-n2c(Cc3cc(=O)[nH]c(=O)[nH]3)nnc2SCC(=O)NC2CCCC2)cc1		inconclusive: 7.85% [at 9.22 µM]
CC(C)CN(C(=O)CN1CCN(S(=O)(=O)c2ccc3ccccc3c2)CC1)c1c(N)n(CC(C)C)c(=O)[nH]c1=O		inconclusive: 10.8%
O=C(Nc1ccccc1)Nc1nnc(-c2ccccc2)o1		inconclusive: -15.9%
Cc1ccc(C(=O)N2CCCC(c3nc4c(nnn4Cc4ccccc4)c(=O)[nH]3)C2)cc1 (configuration not stated)		inconclusive: -55.5%
O=C(N/N=C/c1ccc2nccnc2c1)c1cccc([N+](=O)[O-])c1		inconclusive: 15.9%
CN(CC(=O)Nc1ccccc1C(F)(F)F)C(=O)COc1cccnc1[N+](=O)[O-]		inconclusive: 21.5%
O=C(CSc1cn(CCNC(=O)c2cccs2)c2ccccc12)NC1CCCC1		inconclusive: -11.6%

Three entries from above, comma-delimited.
Structure (SMILES),Potency,"lipid storage change, negative = inhibition"
COc1cccc(NS(=O)(=O)c2ccc(OC)c(OC)c2)c1,"inconclusive: 23.1 µM [activator, single point]",
CCCN(CC(=O)Nc1ccccc1C)C(=O)c1ccc(COc2ccccc2)cc1,,inactive
O=C(N/N=C/c1ccc2nccnc2c1)c1cccc([N+](=O)[O-])c1,,inconclusive: 15.9%

Some of the entries so far, in CSV form.
Structure (SMILES),Potency,"lipid storage change, negative = inhibition"
O=C(N/N=C/c1ccc2nccnc2c1)c1cccc([N+](=O)[O-])c1,,inconclusive: 15.9%
CN(CC(=O)Nc1ccccc1C(F)(F)F)C(=O)COc1cccnc1[N+](=O)[O-],,inconclusive: 21.5%

The list goes on:

Structure (SMILES)	Potency	lipid storage change, negative = inhibition
CCOC(=O)c1c(C)c(C)n(Cc2cccc(OC)c2OC)c1C		inconclusive: 13.5%
CCOC(=O)CSc1nnc(Cn2nnc(-c3ccccc3)n2)n1CC	inconclusive: 29.1 µM [falling, single point]	
CC/C(=N\NC(=O)c1c[nH]c2ccccc12)c1cccs1		inconclusive: -19.8%
CCN1C(=O)CC(N2CCN(c3ccc(OC)cc3)CC2)C1=O (configuration not stated)		inconclusive: 30.1%
CC1CCN(C(=O)c2cc(-c3ccc4c(c3)OCO4)on2)CC1	inconclusive: 1.64 µM [activator, partial curve]	
C/C=C/c1ccc(OCC(=O)N(C)CC(=O)Nc2ccc(F)cc2)c(OC)c1		inconclusive: 15%
Cc1ccccc1NC(=O)COC(=O)C1=COCCO1		inconclusive: 21.6%
O=C1Nc2ncccc2OC1CCO (configuration not stated)	active: 25.9 µM	
CC(C)(C)OC(=O)NCCCC[C@H](NC(=O)c1nc[nH]c1C(=O)NCc1ccc(CNC(=O)OC(C)(C)C)cc1)C(=O)OC(C)(C)C	inconclusive: 29.1 µM [falling, single point]	
CC(SCc1ccccc1)C(=O)NN=C1CCN(C)CC1 (configuration not stated)		inconclusive: 44.8%
COc1ccc(C(=O)CC(Nc2ccc([N+](=O)[O-])cc2)c2ccc(Cl)cc2)cc1 (configuration not stated)		inconclusive: 58.5%
Cc1c(C(=O)Nc2ccccn2)oc2ccccc12		inconclusive: 14.3%
CCC(C)(C)C1CCC2(CC1)NC(=O)N(CC(=O)N(C)CC(=O)Nc1ccccc1C(F)(F)F)C2=O (configuration not stated)	inconclusive: 9.2 µM [falling, single point]	
C[C@@H]1CC=C[C@H]2[C@H]1C(=O)N(Cc1ccccc1)[C@H]2c1ccc(F)c(-c2ccc(N(C)C)cc2)c1		inconclusive: -27.8%
c1ccc(-c2nnnc3ccccc23)cc1		inconclusive: 1.79%
O=[N+]([O-])c1ccc(S(=O)(=O)Nc2ccc(S(=O)(=O)N3CCCC3)cc2)cc1		inconclusive: -40.6%
Cc1ccc(SCC(=O)Nc2ccc(S(N)(=O)=O)cc2)cc1	inconclusive: 0.651 µM [falling, single point]	
O=C(c1ccccc1)N1CCN=C1c1ccccc1		inconclusive: 25.7%
CCOc1ccc(N2C(=O)C3CCCN3C2=O)cc1 (configuration not stated)		inconclusive: -53.8%
O=C(CC1SC(=Nc2ccc3c(c2)OCCO3)NC1=O)Nc1ccc(F)cc1F (configuration not stated)	inconclusive: 0.731 µM [falling, full curve, poor fit]	
Cc1ccc(SCc2cc(=O)n3[nH]c(C)nc3n2)cc1		inactive
COc1cc(C(O)P(=O)(OC(C)C)c2ccc(N(C)C)cc2)cc(OC)c1OC (configuration not stated)		inconclusive: -46.2%
COc1cc(/C=N/Nc2ccc([N+](=O)[O-])cn2)cc(OC)c1O		inconclusive: -4.24%
Cc1cc(C)c(S(=O)(=O)N2CCN(C(=O)C(C)Cn3nc(C)nc3C)CC2)c(C)c1 (configuration not stated)		inconclusive: 36.4%
CCN(C(=O)CN1C(=O)NC(c2ccccc2)(c2ccc(C)c(C)c2)C1=O)C1CCS(=O)(=O)C1 (configuration not stated)		inconclusive: -14.6%
Cc1cccc(NC(=O)CSc2nnc(C)c(C)n2)c1		inconclusive: 392%

Structure (SMILES)	Potency	lipid storage change, negative = inhibition
O=C(Nc1ccc2c(c1)OCCO2)C1CCN(c2cnccn2)CC1	inconclusive: 9.2 µM [activator, partial curve]	
CCn1c(SCCC(=O)Nc2ccccc2)nnc1-c1ccc(OC)cc1	inconclusive: 29.1 µM [falling, single point]	
COC(=O)C(NS(=O)(=O)c1ccc(C)cc1)c1ccccc1 (configuration not stated)		inconclusive: 27.2%
Cc1ccc(C(=O)n2nc(-n3cccc3)c3c(C)cc(C)nc32)cc1		inconclusive: -2.51%
O=C(CNC(=O)c1ccc(F)cc1)c1ccc(Cl)cc1		inconclusive: 31%
Cc1cc(C(=O)N/N=C(\CCC(=O)O)c2cccs2)c2ccccc2n1		inconclusive: 49.2%
CSc1ccc(CN(C)Cc2nc3cc(C(F)(F)F)ccc3c(=O)[nH]2)cc1		inconclusive: 20.3%
COc1ccc(-c2csc3nc[nH]c(=O)c23)cc1OC		inconclusive: 81.4%
CCCCn1c(-c2cccc3ccccc23)nc2cc3[nH]c(=O)c(C(C)C)nc3cc21	active: 20.6 µM	
Cc1cc(C(=O)NC2CCCN(Cc3ccc(Cl)cc3)C2)no1 (configuration not stated)	inconclusive: 29.1 µM [activator, single point]	
CC1CCCCN1CCNC(=O)c1ccc2c(c1)N(Cc1ccccc1)C(=O)c1ccccc1S2(=O)=O (configuration not stated)		inconclusive: 5%
O=C(O)c1ccc(S(=O)(=O)c2ccc([N+](=O)[O-])cc2[N+](=O)[O-])cc1		inconclusive: 6.9%
COc1ccc(CNC(=O)C/C(C)=N/NC(=O)COc2cccc(C)c2)cc1	inconclusive: 0.411 µM [falling, partial curve, poor fit]	
O=C(Nc1ccccc1F)c1ccc(CSc2ccccc2)o1		inconclusive: 29.9%
COC(=O)C1=C(C)N(Cc2ccc(OC)c(OC)c2)C(=O)C1		inconclusive: 13.2%
Cc1ccc(OCC(=O)N/N=C\c2cccs2)c([N+](=O)[O-])c1		inconclusive: 9.35%
O=C(NCS(=O)(=O)c1ccccc1)c1ccccc1	active: 23.1 µM	
Cc1ccc(-c2cc(C(=O)NCc3cccs3)no2)cc1	inconclusive: 9.2 µM [activator, partial curve, poor fit]	
Cc1cc2nc(/N=C(\N)NC(=O)N3c4ccccc4Sc4ccccc43)nc(C)c2cc1C		inconclusive: 25.7%
Cc1cccc(-n2ncc3c(NCc4cccs4)ncnc32)c1		inconclusive: 7.09%
COC(=O)c1ccc(CN2CCN(CC=C(C)C)C(CCO)C2)cc1 (configuration not stated)		inconclusive: 9.1%
COc1cccc(-n2nnc3c(=O)n(CC(=O)Nc4cc(C)on4)cnc32)c1	inconclusive: 0.164 µM [falling, single point]	
O=C(CSc1nnc(-c2ccccc2)n1Cc1ccco1)Nc1ccc2c(c1)OCCO2		inconclusive: 12.6%
COc1ccc(CN2CCNC(=O)C2CC(=O)O)c(OC)c1 (configuration not stated)		inconclusive: -36.9%
Fc1cccc(CN(C2=NCCN2)c2c(Cl)cccc2Cl)c1		inconclusive: 1.42%
